Measurements from patent US20190225687A1 (I MAB, published 2019).
Residue numbers refer to the chain shown, from its start. Results are given in words; binding and its absence hold for the method and conditions named. Some results given as binding are weak or reduced against the parent protein; the word gives no strength.

T1: LAG3 antigen of the Octet RED96 runs (UniProt P18627 23-450, limits assumed)
T1 sequence (looked up): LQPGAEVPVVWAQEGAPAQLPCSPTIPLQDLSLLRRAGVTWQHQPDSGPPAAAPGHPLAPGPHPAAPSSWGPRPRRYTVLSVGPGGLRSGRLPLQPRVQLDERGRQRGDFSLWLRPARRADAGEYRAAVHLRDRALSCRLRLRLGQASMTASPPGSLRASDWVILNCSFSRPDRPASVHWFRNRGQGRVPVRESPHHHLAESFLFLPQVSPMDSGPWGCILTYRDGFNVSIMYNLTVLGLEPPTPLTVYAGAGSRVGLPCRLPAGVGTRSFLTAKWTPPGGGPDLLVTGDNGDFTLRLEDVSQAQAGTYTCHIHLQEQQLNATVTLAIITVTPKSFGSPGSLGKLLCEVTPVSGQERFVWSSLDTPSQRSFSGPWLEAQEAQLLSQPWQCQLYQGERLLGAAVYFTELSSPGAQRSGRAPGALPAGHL

B1: 147H-6 (antibody, V domains shown)
VH: QVQLVQSGAEVKKPGASVKVSCKASGYTFTNYWLGWIKQAPGQGLEWIGDIYPGGDYINYNEKFKGKATLTADTSISTAYMELSRLRSDDTAVYYCARPNLPGDYWGQGTTVTVSS
VL: DIVMTQSPLSLPVTPGEPASISCRSSKSLLHSNGITYLYWYLQKPGQSPQLLIYQVSNLASGVPDRFSGSGSGTDFTLKISRVEAEDVGVYYCAQNLELPWTFGGGTKVEIK
B2: 147H-7 (antibody, V domains shown)
VH: B1 VH with Y95F
VL: B1 VL
B3: 147H-13 (antibody, V domains shown)
VH: B1 VH with Q1E
VL: B1 VL
notes: also called 147H4-13
B4: 147H-14 (antibody, V domains shown)
VH: B1 VH with Q1E, Y95F
VL: B1 VL

Biological target: T1, LAG3 antigen of the Octet RED96 runs
Assay: BLI, Octet RED96, affinity ranking

Row | Binder | binding
1 | B1 | binds
2 | B2 | binds
3 | B3 | binds
4 | B4 | binds

Biological target: T1, LAG3 antigen of the Octet RED96 runs
Assay: BLI, Octet RED96, full kinetics

Row | Binder | binding
5 | B1 | binds
6 | B2 | binds
7 | B3 | binds
8 | B4 | binds
